PubChem BioAssay AID445 (National Center for Advancing Translational Sciences (NCATS), 2006)
This is one part of the list. Shown are side measurements of this screen, not its main read-out; they come without a call. The list favours compounds with an active or inconclusive main result. Potencies come from curve fits of mixed quality, noted in brackets.

Assay: IkB Signaling
Details: ABC-DLBCL IkBa-CBG/CBR dual luciferase ratio (green luciferase fused to IkBa over red control in OCI-Ly3 lymphoma cells), 4 h
In short: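 Luminescence ratio of IκBα-fused green versus native red beetle luciferase in OCI-Ly3 cells, 4 h post-doxycycline with compound; red signal alone, scaled from basal (0%) to zero light (-100%), flagged nonspecific or cytotoxic effects.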

[1] = measured here: control luc red channel unless noted

CCOC(=O)N1CCC(NC(=O)c2cnn(-c3ccc(F)cc3F)c2C2CCN(C(=O)OC(C)(C)C)CC2)CC1
AC50 [1]: 39.8 µM [falling, partial curve, poor fit]

O=C(C1CCCN(S(=O)(=O)c2ccc(Br)s2)C1)N1CCN(c2cccc(Cl)c2)CC1 (stereo not given)
AC50 [1]: 5.01 µM [falling, partial curve]

CCOC(=O)CN(C(=O)CSc1nnc(-c2ccc(OC)c(OC)c2)o1)c1ccc(F)cc1
AC50 [1]: 39.8 µM [falling, single point]

O=C(c1ccc(C23CC4CC(CC(C4)C2)C3)o1)N1CCOCC1
AC50 [1]: 20 µM [falling, single point]

CCC(C)Sc1oc(-c2ccco2)nc1S(=O)(=O)c1ccc(C)cc1 (stereo not given)
AC50 [1]: 0.501 µM [rising, full curve, poor fit]

COc1cccc(CC(=O)Nc2ccc(-c3nc4ccccc4s3)cc2)c1
AC50 [1]: 2.51 µM [rising, partial curve]

Cc1ccc(CNc2ncnc3c2cnn3-c2ccc(Cl)cc2)cc1
AC50 [1]: 3.98 µM [rising, partial curve]

COc1ccccc1C1Nc2c(sc3nc(C)cc(C)c23)C(=O)N1c1ccccc1 (stereo not given)
AC50 [1]: 31.6 µM [falling, single point]

Cc1ccc(NC(=O)C(C)Sc2nc(-c3ccccc3)c(C#N)c(=O)[nH]2)c(C)c1 (stereo not given)
AC50 [1]: 10 µM [falling, partial curve]

O=c1c(N2CCc3ccccc3C2)csc2ccc(Cl)cc12
AC50 [1]: 15.8 µM [falling, partial curve]

CC(C)c1cnc2c(c1SCC(=O)N1CCCCC1)c(=O)n(C)c(=O)n2C
AC50 [1]: 0.0398 µM [falling, full curve, poor fit]

Cc1noc(C)c1C(=O)Nc1nnc(-c2ccccc2)s1
AC50 [1]: 7.94 µM [falling, partial curve]

O=S(=O)(c1ccc2nc(-c3ccco3)c(-c3ccco3)nc2c1)N1CCOCC1
AC50 [1]: 39.8 µM [rising, single point] [measured here: IkB-luc green channel]

CCc1ccc2c(c1)NC(c1ccc(C)cc1)=NC(c1cccs1)=N2
AC50 [1]: 0.316 µM [rising, partial curve]

CC(C)(C)OC(=O)N1CCC(c2c(C(=O)O)cnn2-c2ccc(Cl)cc2)CC1
AC50 [1]: 7.94 µM [falling, partial curve]

CCn1c(=O)sc2cc(NS(=O)(=O)c3ccc(C)cc3)ccc21
AC50 (measured here: IkB-luc green channel): 25.1 µM [rising, partial curve, poor fit]
AC50 (measured here: control luc red channel): 2.51 µM [falling, partial curve]

CCCN1C(C(=O)c2ccccc2)=C(OC(=O)c2ccc(OC)cc2)c2ccccc2S1(=O)=O
AC50 [1]: 3.16 µM [falling, full curve]

CN(Cc1ccc(F)cc1)S(=O)(=O)c1nnc(NC(=O)c2ccccc2Cl)s1
AC50 [1]: 20 µM [falling, partial curve]

Cn1nnnc1SCCCNCc1ccc(-c2ccc(F)c(Cl)c2)o1
AC50 [1]: 0.2 µM [falling, full curve, poor fit]

Cc1ccc(CNC(=O)C2CCCN(S(=O)(=O)c3cn(C)cn3)C2)cc1 (stereo not given)
AC50 [1]: 15.8 µM [falling, partial curve, poor fit]

Cn1cnc2c(sc3nc(N4CCOCC4)c4c(c32)CC(C)(C)OC4)c1=O
AC50 [1]: 0.501 µM [rising, partial curve]

COc1cccc(/C=N/n2c(C)nc3ccccc32)c1OC
AC50 [1]: 39.8 µM [falling, single point]

Cc1cc(=O)n(CC(=O)NCc2ccc(OC(C)C)cc2)c2c1c(C)nn2-c1cccc(F)c1
AC50 [1]: 0.126 µM [falling, full curve, poor fit]

c1ccc(-c2cnc(CSc3ncnc4sccc34)o2)cc1
AC50 [1]: 31.6 µM [falling, partial curve]

O=C(COC(=O)c1cccc(NC(=O)c2ccco2)c1)c1ccc(Br)cc1
AC50 [1]: 2.51 µM [falling, full curve]

Cc1cc(C)cc(NS(=O)(=O)c2ccc(N3CCCCS3(=O)=O)cc2)c1
AC50 [1]: 39.8 µM [falling, single point]

Cc1ccc(NC(=O)CSc2nc(=O)n(Cc3ccccn3)c3c2CCC3)cc1F
AC50 [1]: 15.8 µM [falling, partial curve]

COc1cc(C(=O)NCc2ccc3c(c2)CCN3C(=O)c2ccc(Cl)cc2)cc(OC)c1OC
AC50 [1]: 15.8 µM [falling, partial curve]

O=C(CC1OC(=O)c2ccccc21)NC1CCCCC1 (stereo not given)
AC50 [1]: 10 µM [falling, partial curve]

O=C(Nc1ccccc1Cl)N1CCC2(CC1)Oc1ccccc1C(=O)N2Cc1ccc(F)cc1
AC50 [1]: 20 µM [falling, single point]

CCOC(=O)c1ccc(N2C(=O)c3[nH]nc(-c4ccc(OC)cc4)c3C2c2cccc(O)c2)cc1 (stereo not given)
AC50 [1]: 15.8 µM [falling, partial curve]

COc1ccccc1NC(=O)Cn1nnc(C(=O)NCc2cccs2)c1N
AC50 [1]: 3.16 µM [rising, full curve]

O=c1cc(COc2ccccc2Cl)nc2scc(-c3ccccc3)n12
AC50 [1]: 3.16 µM [rising, full curve, poor fit]

c1ccc(CNc2ncnc3ccccc23)cc1
AC50 [1]: 2.51 µM [falling, full curve]

Cc1ccc(C2NC(=O)c3n[nH]c(-c4cccs4)c32)cc1 (stereo not given)
AC50 [1]: 25.1 µM [falling, single point]

Cc1ccc(Cl)cc1N1CCN(C(=O)Cn2nc(C)c3sc4ccccc4c3c2=O)CC1
AC50 [1]: 10 µM [falling, partial curve]

O=C(Nc1cccc(C(=O)OCc2cc(=O)n3c4c(sc3n2)CCCC4)c1)c1cccc(F)c1
AC50 [1]: 2.51 µM [falling, full curve]

COc1ccc(NC(=O)CCS(=O)(=O)c2nc(-c3ccc4c(c3)OCO4)cc(C(F)(F)F)n2)cc1OC
AC50 [1]: 12.6 µM [falling, partial curve]

Cc1ccc(Cl)cc1NC(=O)CN1C=NS(=O)(=O)c2ccccc21
AC50 [1]: 0.00501 µM [rising, full curve, poor fit]
